Where two headings read alike, the source gives them in different places.
Legend:
[1] = system: serum having high cross-reactivity with ME; conditions: Comparative ex.: MA added 5.0 µg/ml, from cross-reactive ratio of serum of S. Tokura, Anal. Biochem. 161, 117 (1987), cited from earlier work
[2] = Recovery test of MA in the presence of methylephedrine, enzyme immunoassay with enzyme-labeled antibody; set-up: species or system man
[3] = Recovery test of MA added to urine, enzyme immunoassay with enzyme-labeled antibody; set-up: species or system man

CN[C@@H](C)Cc1ccccc1 [MA, methamphetamine]
amount of MA assayed ([1]; ME added 10 µg/ml): 7.00 µg/mL | amount of MA assayed ([1]; ME added 100 µg/ml): 25.00 µg/mL | amount of MA assayed ([2]; MA added 0.5 µg/ml, ME added 0 µg/ml): 0.56 µg/mL | amount of MA assayed ([2]; MA added 0.5 µg/ml, ME added 1 µg/ml): 0.58 µg/mL | amount of MA assayed ([2]; MA added 0.5 µg/ml, ME added 10 µg/ml): 0.62 µg/mL | amount of MA assayed ([2]; MA added 0.5 µg/ml, ME added 100 µg/ml): 1.60 µg/mL | amount of MA assayed ([2]; MA added 1.0 µg/ml, ME added 0 µg/ml): 1.25 µg/mL | amount of MA assayed ([2]; MA added 1.0 µg/ml, ME added 1 µg/ml): 1.25 µg/mL | amount of MA assayed ([2]; MA added 1.0 µg/ml, ME added 10 µg/ml): 1.50 µg/mL | amount of MA assayed ([2]; MA added 1.0 µg/ml, ME added 100 µg/ml): 2.60 µg/mL | amount of MA assayed ([2]; MA added 5.0 µg/ml, ME added 0 µg/ml): 5.40 µg/mL | amount of MA assayed ([2]; MA added 5.0 µg/ml, ME added 1 µg/ml): 5.50 µg/mL | amount of MA assayed ([2]; MA added 5.0 µg/ml, ME added 10 µg/ml): 5.90 µg/mL | amount of MA assayed ([2]; MA added 5.0 µg/ml, ME added 100 µg/ml): 6.00 µg/mL | Found value ([3]; MA concentration in urine after MA added 30 ng/ml): 36.5 ng/mL | Found value ([3]; MA concentration in urine after MA added 100 ng/ml): 100 ng/mL | Found value ([3]; MA concentration in urine after MA added 300 ng/ml): 300 ng/mL | Found value ([3]; MA concentration in urine after MA added 1000 ng/ml): 925 ng/mL | Found value ([3]; MA concentration in urine after MA added 3000 ng/ml): 2650 ng/mL

CC([C@H](O)c1ccccc1)N(C)C (stereo partly shown) [ME, methylephedrin]
amount of MA assayed ([2]; Control: MA added 0, ME added 1 µg/ml): 0.03 µg/mL | amount of MA assayed ([2]; Control: MA added 0, ME added 10 µg/ml): 0.12 µg/mL | amount of MA assayed ([2]; Control: MA added 0, ME added 100 µg/ml): 1.25 µg/mL
